Broadly, the IC50 is the midpoint of a concentration-inhibition curve.

What all share (format): cell-based
The test system of assay [1] is SKBR-3 (human breast cancer cell line). As to the kind of experiment: cells. The following applies: SK-BR-3, 72 h, read-out: Anticancer activity IC50 (nM) ± SD, SKBR-3.
The subject of assay [2] is U-87MG cells (glioblastoma cell line). As to the kind of experiment: cells. The following applies: Homo sapiens, 72 h, read-out: Anticancer activity IC50 (nM) ± SD, U-87.
The test system of assay [3] is SKBR-3, SKOV-3, PC-3, U-87 cells. As to the kind of experiment: SRB cytotoxicity assay, values summarised over cancer cell lines. The following applies: Homo sapiens, read-out: Anticancer IC50 in SKBR-3, SKOV-3, PC-3. Background: The SRB assay estimates cell density from bound dye.
Assay [4] has as its system PC-3 (human prostate cancer cell line). Put plainly: cells. The following applies: 72 h, read-out: Anticancer activity IC50 (nM) ± SD, PC-3.
In assay [5] the test system is SKOV-3 (ovarian cancer cell line). As to the kind of experiment: cells. The following applies: Homo sapiens, SK-OV-3, 72 h, read-out: Anticancer activity IC50 (nM) ± SD, SKOV-3.

Turning to `COc1cc2c(c(OC)c1OC)-c1ccc(OC)c(=O)cc1[C@@H](NC(C)=O)CC2` [Compound 1, colchicine, reference compound], the IC50 is 1.07 ± 0.05 nM in assay [1]; 0.94 ± 0.02 nM in assay [2]; 1.06 to 1.28 nM in assay [3]; 1.06 ± 0.03 nM in assay [4]; 1.28 ± 0.11 nM in assay [5].

Source of the values: PMC8788354 (Journal of Enzyme Inhibition and Medicinal Chemistry, 2022).
